Laboratory results published in paper PMC8968920.
Results are given in words; binding and its absence hold for the method and conditions named. In cells and extracts the contact can be indirect. Some binding calls cover weakened binding; strength is not graded here.

The chains behind the UniProt entries cited, without tags or fusion partners.
UniProt Q9H4A6: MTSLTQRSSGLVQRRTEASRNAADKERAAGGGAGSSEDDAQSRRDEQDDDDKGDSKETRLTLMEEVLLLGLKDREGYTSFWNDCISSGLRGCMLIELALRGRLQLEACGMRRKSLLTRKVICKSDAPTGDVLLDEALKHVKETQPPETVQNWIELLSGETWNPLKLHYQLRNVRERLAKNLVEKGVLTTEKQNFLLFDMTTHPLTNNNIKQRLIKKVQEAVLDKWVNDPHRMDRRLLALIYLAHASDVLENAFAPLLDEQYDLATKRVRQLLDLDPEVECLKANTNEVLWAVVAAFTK
UniProt P40763: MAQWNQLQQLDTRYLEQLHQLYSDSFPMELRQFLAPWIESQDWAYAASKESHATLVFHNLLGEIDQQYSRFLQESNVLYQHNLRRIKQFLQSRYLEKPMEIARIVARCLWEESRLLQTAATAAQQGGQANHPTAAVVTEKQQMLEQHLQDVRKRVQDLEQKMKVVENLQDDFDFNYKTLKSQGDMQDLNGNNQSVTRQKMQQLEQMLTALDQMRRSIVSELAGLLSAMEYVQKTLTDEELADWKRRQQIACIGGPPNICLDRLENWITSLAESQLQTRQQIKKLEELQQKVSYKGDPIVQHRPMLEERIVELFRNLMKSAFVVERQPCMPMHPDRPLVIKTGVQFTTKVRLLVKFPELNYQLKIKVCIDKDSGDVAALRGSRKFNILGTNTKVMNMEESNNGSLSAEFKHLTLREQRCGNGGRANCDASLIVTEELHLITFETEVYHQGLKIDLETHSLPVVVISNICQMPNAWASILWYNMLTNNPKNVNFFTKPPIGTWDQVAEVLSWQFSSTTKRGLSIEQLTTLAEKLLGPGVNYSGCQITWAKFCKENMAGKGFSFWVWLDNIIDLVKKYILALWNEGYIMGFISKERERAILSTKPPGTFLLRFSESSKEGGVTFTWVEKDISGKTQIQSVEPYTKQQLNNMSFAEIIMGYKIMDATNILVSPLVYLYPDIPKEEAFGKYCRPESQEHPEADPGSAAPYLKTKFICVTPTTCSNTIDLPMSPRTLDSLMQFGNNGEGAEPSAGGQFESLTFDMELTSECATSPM

Target: Flag-tagged GOLPH3 (Golgi phosphoprotein 3) (UniProt Q9H4A6)
Assay: co-IP; Flag-tagged GOLPH3 transiently transfected into HCT116 cells, 48 h; lysate (Cell Lysis Buffer, CST, with protease and phosphatase inhibitors) precipitated with anti-Flag magnet beads, 4°C, 4 h; western blot of the eluate

| Substance | binding |
| --- | --- |
| p-STAT3 (Tyr705) (from UniProt P40763 1-770) | binds |
| total STAT3 (signal transducer and activator of transcription 3) (from UniProt P40763 1-770) | binds |
